1 molecule from patent EP4311830A1 (King Faisal Specialist Hospital & Research Centre, priority 2022, dated 2024) can be followed below.

The test system of this assay is MDA-MB-231. In words: Cytotoxicity assay (WST1). It is filed as cell-based. To be noted: Breast, MDA-MB-231, WST1. On the procedure: 5,000 cells/well were seeded in 96-well plates with appropriate culture media. After cells treatment, WST-1 reagent (Sigma-Aldrich) was added to each well according to the manufacturer's instructions. These experiments were performed in triplicates and were repeated several times.
On the technique in general: Tetrazolium dyes change colour on reduction, which living cells bring about.

As a reminder, the IC50 is the concentration at which inhibition is half-maximal. Read a high IC50 as lower potency.

Turning to `N.N.[Cl][Pt][Cl]` [Cisplatin, (SP-4-2)-diamminedichloridoplatinum(II)], the IC50 is 22.8 ± 2.13 µM.
